20 molecules from patent publication US20200247886A1 can be followed below.

Amino acid sequences for entries named in this document (tags omitted). A change or cut given only in a name is not applied to a line headed by its entry.
UniProt Q08722: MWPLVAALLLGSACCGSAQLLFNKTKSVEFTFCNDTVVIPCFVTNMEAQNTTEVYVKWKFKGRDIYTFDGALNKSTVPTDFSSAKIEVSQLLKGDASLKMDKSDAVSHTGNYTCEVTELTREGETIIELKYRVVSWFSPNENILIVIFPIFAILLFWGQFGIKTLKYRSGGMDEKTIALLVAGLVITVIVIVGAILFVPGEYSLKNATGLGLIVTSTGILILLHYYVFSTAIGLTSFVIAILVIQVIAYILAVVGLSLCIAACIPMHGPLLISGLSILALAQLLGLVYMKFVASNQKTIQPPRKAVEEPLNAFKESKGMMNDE

The target of assay [1] is human CD47 expressed on cells (CD47 expressing CHO cells, Jurkat, HL60, DLD1, Raji) (human) (UniProt Q08722). Kind of assay: flow cytometry on CD47 expressing CHO cells, MFI (FL-4). (In general: A flow cytometer gives signals particle by particle.)
The target of assay [2] is CD47 on monkey RBC (Macaca fascicularis). Put plainly: flow cytometry on cynomolgus monkey red blood cells, MFI.
Assay [3] concerns the target human CD47 expressed on cells (CD47 expressing CHO cells, Jurkat, HL60, DLD1, Raji) (human) (UniProt Q08722). Put plainly: flow cytometry on human red blood cells, donor 1, MFI.
For assay [4] the target is unchanged. Kind of assay: flow cytometry on human red blood cells, donor 2, MFI.
Assay [5] has the same target. Put plainly: flow cytometry on human platelets, donor 1, MFI.
For assay [6] the target is unchanged. Put plainly: flow cytometry on human platelets, donor 2, MFI.
For assay [7] the target is unchanged. Kind of assay: flow cytometry on DLD1 cells, Fab, frequency.
The target is the same in assay [8]. Put plainly: flow cytometry blocking assay on Raji cells, SIRPα is the blocked ligand, MFI.
Assay [9] shares this target. Put plainly: flow cytometry SIRP-alpha blocking assay on Raji cells, MFI.
Assay [10] has the same target. Kind of assay: IC50 (nM) as grade, SIRP-alpha blocking on Raji cells; legend +: <0.6 nM.

Numbering of substitutions follows the chain as printed. Results are given in words; binding and its absence hold for the method and conditions named. Some entries that bind do so weakly or less than the wild type.

B1: C-ABU4 (antibody, human IgG4 S228P, kappa, V domains shown)
VH: QVQLQQSGPQLVRPGASVKISCKTSGYSFTNYWMQWVKQRPGQGLEWIGMIDPSDSESRLNQKFKDKATLTVDKSSSTAYMQLSSPTFEDSAVYYCARRGSPMITSFAYWGQGTLVTVSA
VL: DVQITQSPSFLAASPGETITINCRASKNIGKYLAWFQEKPGKTNKLLIYSGSTLQSGIPSRFSGSGSGTDFTLTISSLEPEDFAIYYCQQHNEYPYTFGGGTKLEIKR
On to B1, for which the binding result in assay [1] is “binds”.

B2: ABU4 (antibody, V domains shown)
VH: B1 VH
VL: DVQITQSPSFLAASPGETITINCRASKNIGKYLAWFQEKPGKTNKLLIYSGSTLQSGIPSRFSGSGSGTDFTLTISSLEPEDFAIYYCQQHNEYPYTFGGGTKLEIK
With B2, the binding entry in [2] is listed as “binds”.

B3: H-ABU44 (antibody, V domains shown)
VH: QVQLVQSGAEVKKPGASVKVSCKASGYSFTNYHIHWVRQAPGQRLEWIGWIYPGSGNTKYNEKFKGRATLTADTSASTAYMELSSLRSEDTAVYYCARYDYDLYLHSWGQGTLVTVSS
VL: DIQITQSPSSVSASVGDRVTITCHASQNINVWLSWYQQKPGKAPKLLIYKASNLHTGVPSRFSGSGSGTGFTLTISSLQPEDFATYYCQQGQSYPLTFGQGTKLEIK
In the case of B3, the binding result in assay [3], in assay [4], in assay [5] and in assay [6] was “binds” each time.

B4: ABU20 (Fab) (Fab, V domains shown)
VH: RGKVQESGPGLVKPSQSLSLTCSVTGYSITSGYYWNWIRQFPGNKLEWMGYINYDGSNNYNPSLKNRISITRDTSKNQFFLKLNSVTTEDTATYYCARGYYYGSSYGYWYFDVWGTGTTVTVSS
VL: DAVVTQESALTTSPGETVTLTCRSSTGAVTTNNYANWVQEKPDHLFTGLIGGTNNRAPGVPARFSGSLIGDKAALTITGAQTEDEAIYFCALWYSNHLVFGGGTKLTVL
On to B4, for which, in assay [7], the binding result is listed as “binds”.

B5: ABU11 (Fab) (Fab, V domains shown)
VH: EVQLQQPGAELVRPGSSVKLSCKASGYSFTTYWMHWVKQRPGQGLEWIGNINPSSGDSHYNEKFKSKATLTVDKSSSTAYLQLNSLTSEDSAVYYCARDYYGAYWGHGTLVTVSA
VL: DIQMTQSPASLSASVGETVTITCRASENVYSYLAWYQQKQGKSPQLLVYKANTLAEGVPSRFSGSGSGTQFSLKINSLQPEDFGTYYCQHHYGTPLTFGSGTKLEIK
In the case of B5, the binding entry in assay [7] is recorded as “binds”.

B6: H-ABU 4 (antibody, V domains shown)
VH: QVQLVQSGAEVKKPGASVKVSCKASGYTFTDIYINWVRQAPGQRLEWMGWIYLGSGNVKYNEKFKGRVTITRDTSASTAYMELSSLRSEDTAVYYCARREDRGFAYWGQGTLVTVSS
VL: DIVMTQSPDSLAVSLGERATINCKSSQSLLSSNQKYYLAWYQQKPGQPPKLLIYWASTRDSGVPDRFSGSGSGTDFTLTISSLQAEDVAVYYCQQFYSYPLTFGQGTKVEIK
In the case of B6, in assay [8], the binding entry is given as “binds”.

B7: H-ABU 7 (antibody, V domains shown)
VH: B6 VH with I32H, V58T
VL: B6 VL with N33S, Y36N, T58V, F96Y
Consider B7, for which the binding entry in assay [3], in assay [4], in assay [5], in [6] and in assay [8] was “binds” in each case.

B8: H-ABU 10 (antibody, V domains shown)
VL: B6 VL with L30V, N33S, Y36N, T58V, F96Y
VH: B6 VH with I32N, V58T, D101E, Y106P
Turning to B8, the binding result in assay [3], in [4], in [5], in [6] and in [8] was “binds” throughout.

B9: H-ABU 6 (antibody, V domains shown)
VH: B6 VH with I32F, V58T, D101E
VL: B6 VL with Y36N, T58V
For B9, the binding result in [8] was “binds”.

B10: H-ABU 11 (antibody, V domains shown)
VH: B6 VH with I32F, V58T, D101E
VL: B6 VL with N33S, Y36N
On to B10, for which the binding entry in assay [3], in assay [4], in [5], in assay [6] and in assay [8] was “binds” in each case.

B11: H-ABU 37 (antibody, V domains shown)
VH: QVQLVQSGAEVKKPGASVKVSCKASGYTFTNYWMQWVRQAPGQGLEWMGMIDPSDSESRLNQKFKDRVTMTRDTSTSTVYMELSSLRSEDTAVYYCARRGSPMITSFAYWGQGTLVTVSS
VL: DVQITQSPSSLSASVGDRVTITCRASKNIGKYLAWFQQKPGKTNKLLIYSGSTLQSGIPSRFSGSGSGTDFTLTISSLQPEDFATYYCQQHNEYPYTFGGGTKVEIK
In the case of B11, the binding entry in assay [9] and in [10] was “binds” each time.

B12: H-ABU 43 (antibody, V domains shown)
VH: B11 VH with A24T, T28S, V79A
VL: B11 VL
For B12, the binding entry in assay [3], in assay [9], in [4], in assay [5], in [10] and in assay [6] was “binds” in each case.

B13: H-ABU 40 (antibody, V domains shown)
VH: B11 VH with V5Q, A24T, T28S, M48I, R67K, V68A, M70L, R72V, T74K, V79A
VL: B11 VL with T43A, N44P, L46S, I58V
As to B13, the binding entry in assay [9] and in [10] was “binds” throughout.

B14: H-ABU42 (antibody, V domains shown)
VH: B11 VH
VL: B11 VL with T43A, N44P, L46S
B14: the binding result in assay [9] is on record as “binds”.

B15: H-ABU 38 (antibody, V domains shown)
VH: B11 VH with M48I, V68A, M70L, R72V
VL: B11 VL
As for B15, the binding entry in assay [9] and in [10] was “binds” throughout.

B16: H-ABU 39 (antibody, V domains shown)
VH: B11 VH with A24T, T28S, M48I, V68A, M70L, R72V, V79A
VL: B11 VL
As to B16, the binding entry in [9] and in assay [10] was “binds” throughout.

B17: H-ABU 41 (antibody, V domains shown)
VL: B11 VL
VH: B11 VH with V5Q, A24T, T28S, M48I, R67K, V68A, M70L, R72V, T74K, V79A
Turning to B17, the binding result in assay [3], in assay [9], in assay [4], in assay [5], in assay [10] and in assay [6] was “binds” each time.

B18: ABU7 (antibody, V domains shown)
VH: EVQLQQSGPELVKPGASVKISCKASGYSFTGYYMNWVKQSPEKSLEWIGEINPSTGGTTYNQKFKAKATLTVDKSSSTAYMQLKSLTFEDSAVYYCAIYDGYEGFAYWGQGTLVTVSA
VL: DIKMTQSPSSMYASLGERVTITCKASQDIKSYLSWYQQKPWKSPKTLIYYATSLADGVPSRFSGSGSGQHYSLTISSLESDDTATYYCLQHGESPFTFGSGTKLEIK
B18: the binding result in [2] was “binds”.

B19: C-ABU2 (antibody, V domains shown)
VH: QVQLQQPGAELVRPGASVKLSCKASGYTFTNYWMNWFKQRPEQGLEWIGRIDPYDSETLYNQKFKDKAILTVDKSSSTAYMQLSSLTSEDSAVYYCAGGGKGGFGYWGQGTLVTVSA
VL: DVLMTQTPLSLPVSLGDQASISCRSSQSIVYSNGNTYLEWYLQKPGQSPKLLIYKVSNRFSGVPDRFSGSGSGTDFTLKISRVEAEDLGVYYCFQGSHVPYTFGGGTKLEIK
For B19, the binding result in [1] is “binds”.

B20: ABU5 (antibody, V domains shown)
VH: QVQLQQPGAELVKPGASVKMSCKASGYTFTNYWIAWVKRRPGQGLEWIGDFYPGNTSTNYNEKFKTKATLTIDTSSSTAYMQLSSLTSEDSAVYYCARRGRGGSSYWGQGTTLTVSS
VL: B19 VL with D17E, Y31H, K55R, S57A, Y101W
Take B20: in assay [2], the binding entry is listed as “binds”.
